# Results published in PubChem BioAssay AID662 (National Center for Advancing Translational Sciences (NCATS), 2007).
# The other results are listed elsewhere or left out. These are further read-outs of the screen, such as a control signal, another cell line or another target. No call is given for them. The list favours compounds with an active or inconclusive main result. Potencies come from curve fits of mixed quality, noted in brackets.
# Experiment: Cell signaling CRE-BLA (Fsk stim)
# Details: CHO CRE-bla reporter (cAMP response element driving beta-lactamase), forskolin EC10, beta-lactamase ratio; measured here: 460 nm blue channel
# In short: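 Using CellSensor CRE-bla CHO cells in Opti-MEM with 0.5% dialyzed FBS, compounds were titrated with EC10 NKH 477 for 3 h at 37 °C. CCF4 ratio (460/530 nm) gave %Activity; AC50 derived.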
row,SMILES,AC50
1,CC(C)Nc1nc(NC(C)C)nc(Oc2ccc(/C=N/O)cc2)n1,"0.398 µM [falling, partial curve]"
2,NC(=O)C1CCN(C(=O)CCCCCn2c(=O)[nH]c3ccsc3c2=O)CC1,"0.126 µM [falling, partial curve]"
3,O=C1c2ccccc2-c2nc3ncnn3c(-c3ccccc3Cl)c21,"12.6 µM [rising, partial curve]"
4,CCCn1c(=O)c(C(=O)Nc2ccccc2C(=O)OC)c(O)c2ccccc21,"3.16 µM [rising, partial curve]"
5,CC(=O)Nc1ccc(N=Cc2nc(-c3ccc(C)cc3)oc2O)cc1,"5.01 µM [rising, partial curve]"
6,CCOC(=O)c1cccc(NC(=O)CSc2nc3ccccc3c(=O)n2CCOC)c1,"20 µM [rising, single point]"
7,O=C(Nc1cccnc1N1CCOCC1)c1ccco1,"12.6 µM [rising, single point]"
8,COc1ccccc1-c1cc(-n2ccnc2)ncn1,"10 µM [rising, partial curve]"
9,O=C(Nc1ccc2oc(-c3ccccc3)nc2c1)c1cccnc1,"12.6 µM [rising, partial curve]"
10,COc1cc2c(cc1OC)/C(=C/C(=O)N1CCOCC1)NC(C)(C)C2,"3.16 µM [rising, partial curve]"
11,Cc1cccc(Nc2cc(Cl)nc(SCC(=O)O)n2)c1C,"31.6 µM [falling, partial curve, poor fit]"
12,Cc1ccc(-c2nn(-c3ccccc3)c3[nH]c(=O)c(CNCCN(C)C)cc23)cc1,"0.00631 µM [falling, full curve, poor fit]"
13,FC(F)(F)c1nc2nc(Cl)c(Cl)nc2n1CCCN1CCOCC1,"5.01 µM [rising, single point]"
14,Nc1c(S(=O)(=O)c2cccc(Cl)c2)c2nc3ccccc3nc2n1CCN1CCOCC1,"10 µM [rising, partial curve]"
15,Cc1cccc(CNc2ccnc(-c3cccnc3)n2)c1,"5.01 µM [rising, single point]"
16,Cc1cc(NC(=O)CC2CCCC2)n(-c2nc3ccccc3[nH]2)n1,"5.01 µM [falling, single point]"
17,O=C(CSc1nnc(Cc2ccccc2)o1)N1CCc2ccccc21,"25.1 µM [rising, single point]"
18,COc1ccc(-c2cc(C(=O)OCC(=O)N3CCCC3)c3ccccc3n2)cc1,"15.8 µM [rising, single point]"
19,CC[C@H](C)C(=O)O[C@H]1CCC=C2C=C[C@H](C)[C@H](CC[C@@H]3C[C@H](O)CC(=O)O3)[C@H]21,"25.1 µM [rising, partial curve, poor fit]"
20,COc1cccc(Nc2ncc3nc(-c4ccccc4)c(=O)n(Cc4cccs4)c3n2)c1,"2 µM [rising, partial curve]"
21,CSC1=C(C#N)C(c2ccccc2C)C(C#N)=C(N)N1 (stereo not drawn),"12.6 µM [rising, partial curve]"
22,O=C(NCCCN1CCOCC1)C1CC(=O)N(CCc2ccccc2)C1 (stereo not drawn),"0.00398 µM [falling, full curve, poor fit]"

row,SMILES,AC50
1,Cc1ccc(Nc2cc(C)nc3nc(C)nn23)c(C)c1,"12.6 µM [rising, single point]"
2,CCNc1cc2oc(=O)c(CN3CCOCC3)c(C)c2cc1C,"3.16 µM [rising, partial curve]"
3,O=C1CC(N2CCN(c3ccc(Cl)c(Cl)c3)CC2)C(=O)N1 (stereo not drawn),"1.26 µM [rising, partial curve, poor fit]"
4,Cc1cc(C(=O)OCC(=O)Nc2ccc(F)cc2F)c(C)o1,"3.98 µM [falling, single point]"
5,COC(=O)c1cc(=O)n(Cc2ccco2)c(=Nc2ccc(F)c(Cl)c2)s1,"3.16 µM [falling, full curve]"
6,O=S(=O)(c1ccc(Cl)c(F)c1)N1CCC(c2nc(-c3ccncc3)no2)CC1,"25.1 µM [falling, single point]"
7,COc1ccc(Oc2ncc3nc(-c4cn(C)c5ccccc45)c(=O)n(C)c3n2)cc1,"5.01 µM [rising, partial curve]"
8,CCN(C(=O)c1cn(C)c(=O)c2cc(OC)c(OC)cc12)c1cc(C)ccc1C,"6.31 µM [rising, partial curve, poor fit]"
9,O=C1CC(c2ccccc2)Cc2nc(N3CCc4ccccc43)ncc21 (stereo not drawn),"12.6 µM [rising, single point]"
10,COc1ccc(NC(=O)N2CCN(c3nc(-c4cccc(OC)c4)cs3)CC2)cc1,"12.6 µM [falling, partial curve]"
11,Cc1c(C2N3CC4(C)CN2CC(C)(C3)C4=O)c2ccccc2n1C (stereo not drawn),"3.16 µM [rising, single point]"
12,O=c1c(-c2ccc(F)c(F)c2)nc2cncnc2n1Cc1ccccc1Cl,"12.6 µM [rising, partial curve]"
13,Cn1c(=O)c2c(nc(NC3CCCCC3)n2Cc2ccccc2)n(C)c1=O,"12.6 µM [rising, partial curve]"
14,C(=C/c1ccccc1)/CN1CCN(C(c2ccccc2)c2ccccc2)CC1,"12.6 µM [falling, single point]"
15,Cn1c2ccccc2c2ncn(CCC3=CCCCC3)c(=O)c21,"25.1 µM [rising, single point]"
16,COCCCNC(=O)c1cc2c(=O)n(C)c3ccccc3c2n1C,"5.01 µM [rising, partial curve]"
17,CCOC(=O)c1nc(-c2ccccc2)oc1N(C)C,"10 µM [rising, single point]"
18,COc1ccccc1C1=Nn2c(nnc2C2CCCCC2)SC1,"5.01 µM [falling, single point]"
19,C=CCSc1nc2c(c(=O)[nH]c(=O)n2C)n1CC,"10 µM [rising, partial curve]"
20,COc1ccc(NC(=O)C2CCN(S(=O)(=O)c3cccc4cccnc34)CC2)cc1OC,"10 µM [rising, partial curve]"
21,CCC(Sc1nnc(C)s1)C(=O)Nc1nccs1 (stereo not drawn),"12.6 µM [rising, single point]"

# Part of the list above in another layout:
row	SMILES	AC50
11	Cc1c(C2N3CC4(C)CN2CC(C)(C3)C4=O)c2ccccc2n1C (stereo not drawn)	3.16 µM [rising, single point]
12	O=c1c(-c2ccc(F)c(F)c2)nc2cncnc2n1Cc1ccccc1Cl	12.6 µM [rising, partial curve]
13	Cn1c(=O)c2c(nc(NC3CCCCC3)n2Cc2ccccc2)n(C)c1=O	12.6 µM [rising, partial curve]
14	C(=C/c1ccccc1)/CN1CCN(C(c2ccccc2)c2ccccc2)CC1	12.6 µM [falling, single point]
15	Cn1c2ccccc2c2ncn(CCC3=CCCCC3)c(=O)c21	25.1 µM [rising, single point]
16	COCCCNC(=O)c1cc2c(=O)n(C)c3ccccc3c2n1C	5.01 µM [rising, partial curve]
17	CCOC(=O)c1nc(-c2ccccc2)oc1N(C)C	10 µM [rising, single point]
18	COc1ccccc1C1=Nn2c(nnc2C2CCCCC2)SC1	5.01 µM [falling, single point]
19	C=CCSc1nc2c(c(=O)[nH]c(=O)n2C)n1CC	10 µM [rising, partial curve]
